Library screen at single concentrations

Source: ChEMBL document CHEMBL3988442, “University of Dundee, Small-Polar-MMV Screening Library” (2021).

The filed quantity is “Percent Effect” (%).
The record does not define 0% and 100%; most values in the screen are far below 50% and negative numbers occur (in some assays of this library far below -100).
Compounds were drawn at random from those tested, without regard to their results.

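Whole-parasite assay of Trypanosoma brucei over 72 hours; the read-out is not stated. Compounds at 30 µM. Higher reads as stronger inhibition (inferred: compounds with an IC50 in retests scored well above the rest). Values scatter widely below zero; nearly all retest evidence comes from the higher of the two concentrations used. Size under these conditions: about 64,000 compounds, about 940 of them at 50% or above in at least one test.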

| # | compound | effect |
|---|---|---|
| 1 | `COc1cccc(C(=O)N2CCCCC2c2nccs2)c1OC` (stereo not drawn) | -19.07% |
| 2 | `CCc1ncc(C(=O)N2CCN(c3nc(C)cc(OC)n3)CC2)s1` | -39.97% |
| 3 | `CN(C)C(CNC(=O)NCc1ccco1)c1cccs1` (stereo not drawn) | -20.27% |
| 4 | `O=C(Nc1ccccc1)C1CN(CC2CC2)CC12CCOCC2.O=C(O)C(F)(F)F` (stereo not drawn) | 10.47% |
| 5 | `Cc1ccc2snc(C(=O)N3CCN(C(=O)NCCC(C)C)CC3)c2c1` | -42.84% |
| 6 | `CCCS(=O)(=O)N1CCN(c2cc(-n3nc(C)cc3C)nc(C)n2)CC1` | -4.075% |
| 7 | `CC(C)(C)n1ncc2c(=O)n(CC(=O)NCc3ccccc3)cnc21` | -12.49% |
| 8 | `Cc1cccc(CN2Cc3[nH]nc(COCc4nccs4)c3C2)n1.O=C(O)C(F)(F)F` | -40.44% |
| 9 | `c1ccc(-c2noc(CN3CCc4cncnc4C3)n2)nc1` | 4.092% |
| 10 | `CCC1CNCc2cc3c(OC)ccc(OC)c3nc2O1` (stereo not drawn) | 8.287% |
| 11 | `Cc1nc2sccn2c1CNC1(c2ccccc2F)CCCC1.O=C(O)CC(O)(CC(=O)O)C(=O)O` | -32.11% |
| 12 | `CCn1ncnc1C(C)NC(=O)C1CCN(C(C)C)CC1` (stereo not drawn) | -47.18% |
| 13 | `O=C(O)C(F)(F)F.[H][C@]12CCN(Cc3c(C)noc3C)[C@@]1([H])CC[C@@H](COCC1CC1)O2` | 29.16% |
| 14 | `Cc1cc2ccccc2n1CCC(=O)NCCS(C)(=O)=O` | -29.46% |
| 15 | `Cc1cccc(CN2CCC3(CCN(c4ccccn4)C3)C2=O)c1.O=C(O)C(F)(F)F` (stereo not drawn) | 0.1855% |
| 16 | `Cc1ncsc1C(=O)N(C)Cc1cccnc1` | 5.552% |
| 17 | `Cc1cc(Cc2ccc(F)cc2)cc(C2CCCNC2)n1` (stereo not drawn) | 51.54% |
| 18 | `CC(C)[C@@H]1CN(CCCOc2ccc(F)cc2)C[C@H]1NS(C)(=O)=O` | -3.782% |
| 19 | `O=C(c1nn(-c2ccccc2F)cc1O)N1CCCCC1` | -11.3% |
| 20 | `Cc1nc(-c2cn(CCN)nn2)n(-c2ccc3c(c2)CCC3)n1` | -33.69% |
| 21 | `Cc1ccnn1CCNC(=O)C1CCN(S(=O)(=O)c2ccc(F)cc2)C1` (stereo not drawn) | 7.521% |
| 22 | `Cc1cc(O)cc(=O)n1CCCC(=O)Nc1n[nH]c2cccc(F)c12` | -6.078% |
| 23 | `CN(Cc1ccccc1NCc1cccnc1)C(=O)c1cccs1` | -20.05% |
| 24 | `CN(CCO)CC1COCCN1C(=O)C1(c2cccs2)CCCC1.O=CO` (stereo not drawn) | 95.25% |
| 25 | `Cc1cnn(CCNCc2c(C)nn(Cc3ccccc3)c2C)c1` | -17.63% |
| 26 | `CS(=O)(=O)NC1CCN(C(=O)c2ccc(F)cc2)CC1` | -18.46% |
| 27 | `CCc1ccc2nc(C)cc(C(=O)N[C@@H]3CNC[C@H]3O)c2c1` | -69.69% |
| 28 | `COc1ccc(NC2CCCN(Cc3cnc(N(C)C)s3)C2)cc1OC` (stereo not drawn) | 5.643% |
| 29 | `CCc1noc(C(C)N(C)CC(=O)Nc2cccc(C)c2C)n1` (stereo not drawn) | -18.75% |
| 30 | `[H][C@@]12CCCC[C@]1(O)CCN(C(=O)c1cc(CN(CC)CC)oc1C)C2` | -16.78% |
| 31 | `CC(C)(C)CC(NC(=O)N1CCC(C(N)=O)CC1)C(F)(F)F` (stereo not drawn) | -1.319% |
| 32 | `Cc1cccc(OCC2CCCN(C(=O)Cn3ccccc3=O)C2)c1` (stereo not drawn) | -75.62% |
| 33 | `O=C(c1ccc(C2CCCN2C(=O)c2ccoc2)s1)N1CCOCC1` (stereo not drawn) | -210.3% |
| 34 | `COCCNc1ccc(-c2noc([C@@H]3CCCN3)n2)cn1` | -55.07% |
| 35 | `CC(=O)N1CCCC(c2ccc(N3CCOCC3)cn2)C1` (stereo not drawn) | 2.234% |
| 36 | `Cc1cc(N2CCC(NS(C)(=O)=O)CC2)nc(C(C)C)n1` | -23.39% |
| 37 | `COc1cccc(Cn2ncnc2CCSC)c1` | -58.15% |
| 38 | `O=C(O)C(F)(F)F.[H][C@]12CC[C@@]3(N=C(CC)N(CC4CC4)C3=O)[C@@]1([H])CN(CC(=O)N(C)C)C2` | 19.47% |
| 39 | `COCCSc1ccc(C(C)NC(=O)Nc2cn[nH]c2)cc1` (stereo not drawn) | -15.33% |
| 40 | `O=C(COc1cccc(F)c1)N1C[C@H](CO)C[C@H](CN2CCCC2)C1` | 26.44% |
| 41 | `CN(C)CCOc1ccc(CNC(=O)c2cccc3[nH]ncc23)cc1` | -12.9% |
| 42 | `Cc1cc(CN(C)C(=O)NC(C)Cc2ccc(O)cc2)no1` (stereo not drawn) | 5.647% |
| 43 | `CCOc1nnc(CN(CC)CC(=O)NC(C)(C)C)s1` | -23.3% |
| 44 | `c1ccc(-n2ccc(CN3CCCC(Cn4cncn4)C3)n2)cc1` (stereo not drawn) | 10.86% |
| 45 | `Cc1ccnc(C(Nc2nccc(-c3ccc(C)nc3C)n2)C2CC2)c1` (stereo not drawn) | -24.46% |
| 46 | `Cc1nc(C)n(CC2CN(CCc3ccccc3Cl)CCO2)n1` (stereo not drawn) | -59.81% |
| 47 | `[H][C@@]12CCN(Cc3ccco3)[C@]1([H])CC[C@@H](C(=O)NCc1cnc(C)cn1)O2` | -29.3% |
| 48 | `COCC(=O)N1CC(=O)c2sc(Nc3ccc(F)cc3F)nc2C1` | -13.71% |
| 49 | `Cc1ccc(C(=O)N2CCC3(CC2)c2ccccc2[C@@H](N)[C@@H]3O)cc1F` | -49.27% |
| 50 | `COc1ccc(C(=O)N2CC(c3ccncc3)C2)c(OC)c1OC` | -5.589% |
| 51 | `C=C(C)Cn1ccc2cc(OC)c(F)cc2c1=O` | -20.7% |
| 52 | `Cc1nccn1-c1cc(CNC(=O)C2CCCO2)ccn1` (stereo not drawn) | 10.98% |
| 53 | `Cn1ccnc1CN1CCN(CC(=O)NCc2ccccc2F)CC1` | 0.4964% |
| 54 | `O=C(NCc1nc[nH]n1)c1cc(COc2cccc(F)c2)[nH]n1` | -25.29% |
| 55 | `O=C(O)C(F)(F)F.O=C(O)C(F)(F)F.[H][C@@]12C[C@@H](OCc3ccccc3)CN1CCN(c1ncccn1)C2` | -72.66% |
| 56 | `CCc1cnc2c(c1Nc1ccc(OC)cc1)c(=O)n(C)c(=O)n2C` | -0.7744% |
| 57 | `CC(C)(C)c1cn2nc(N3CCC[C@@H]3CO)sc2n1` | -17.79% |
| 58 | `COc1ncccc1CNC(=O)N1CCCC1c1ccsc1` (stereo not drawn) | -8.859% |
| 59 | `COc1ccc(CCN(C)C(=O)c2cc(C(C)=O)c[nH]2)cc1OC` | -2.903% |
| 60 | `CC(C)Nc1ncnc2c1CCN(Cc1nccn1C)CC2.O=C(O)C(F)(F)F.O=C(O)C(F)(F)F` | -53.66% |
| 61 | `N#CC1COCCN1S(=O)(=O)c1ccc2c(c1)CCC2` (stereo not drawn) | -18.65% |
| 62 | `COc1ccccc1OCCNC(=O)N1CCC(n2cncn2)CC1` | 15.18% |
| 63 | `CC(=O)Nc1nc(C(=O)NC(C)c2ccc(F)c(F)c2)cs1` (stereo not drawn) | 18.02% |
| 64 | `CCOC1CC2(CCN(c3cnccn3)CC2)c2ccccc21` (stereo not drawn) | -22.49% |
| 65 | `CC[C@H](C)[C@H](NC(=O)c1cccc(-n2cnnn2)c1)C(=O)OC` | -17.6% |
| 66 | `Cc1ccc(CN2CC[C@H](c3nc4cccc(C(N)=O)c4[nH]3)C2)cc1` | -23.73% |
| 67 | `O=C(c1ccccc1)C1CCN(Cc2cc3c(cc2O)CCC3)CC1` | -48.81% |
| 68 | `CC(=O)Nc1ncc(S(=O)(=O)Nc2cccc(F)c2)s1` | -29.74% |
| 69 | `CN1CCN(CC(NCc2cccc(O)c2)c2ccccc2)CC1` (stereo not drawn) | 100.4% |
| 70 | `CC(=O)N[C@@H]1CN(Cc2ccccc2-n2nc(C)cc2C)C[C@H]1C(C)C` | -15.71% |
| 71 | `CCCN(CC(F)(F)F)S(=O)(=O)c1cc(C(N)=O)n(C)c1` | 5.354% |
| 72 | `Cc1noc(C)c1CN(C)C(=O)NC1CCOCC1` | -10.52% |
| 73 | `Cc1cccc2c1nc(CCO)n2-c1ccc(C(=O)N2CCCC2)o1` | -32.85% |
| 74 | `Cc1noc(C)c1-c1ccc(C2CCCN2C(=O)c2ccncn2)nc1` (stereo not drawn) | -51.06% |
| 75 | `COc1cccc(OCC(=O)N2CCCSCC2CN2CCOCC2)c1` (stereo not drawn) | -27.29% |
| 76 | `Cc1nc(C2CCCN2CCc2cccs2)no1` (stereo not drawn) | 12.85% |
| 77 | `COC(=O)N1CCC(NC(=O)c2cc(S(N)(=O)=O)ccc2C)CC1` | -22.34% |
| 78 | `CN(C)C(=O)CN1CCCC(Cc2ccc(N3CCCC3)nn2)C1` (stereo not drawn) | 12.86% |
| 79 | `CC(=O)N1CCN(C(=O)C(C)n2cncn2)CC1` (stereo not drawn) | 21.15% |
| 80 | `COCCNC(=O)Cn1cc(OCc2ccc(F)cc2)c(=O)cc1CO` | -4.951% |
| 81 | `O=C(NC(c1ccc(Cl)cc1)C(F)(F)F)c1nc(=O)[nH][nH]1` (stereo not drawn) | -41.88% |
| 82 | `COc1c(CNCc2ccccc2Cn2cncn2)c(C)nn1C` | -18.28% |
| 83 | `CCC1CCCCN1C(=O)Cn1nc(-c2cc(C)oc2C)cc(N)c1=O` (stereo not drawn) | -5.481% |
| 84 | `Cc1cc(N)nc(C2(C)CCCN2C(=O)Cc2ccc(F)cc2)n1` (stereo not drawn) | -9.017% |
| 85 | `Cn1ccc2c(C(=O)NCCCN3CCOCC3)cccc21` | -21.03% |
| 86 | `O=C(NCc1ccccc1)c1nnc2ccc(N3CCOCC3)cc2n1` | -8.915% |
| 87 | `O=C(NCc1cc[nH]n1)NCC(c1ccc(F)cc1)N1CCOCC1` (stereo not drawn) | -18.65% |
| 88 | `Cc1cnc(N2CCC(c3ccncc3)CC2)nc1-c1ccnn1C` | 28.83% |
| 89 | `CCc1nsc(N2CCN(C(=O)c3ccnc(N(C)C)c3)CC2)n1` | -49.41% |
| 90 | `CC(C)CCN1CC2(CCN(C(=O)C3(C)CCCCO3)CC2)OC1=O` (stereo not drawn) | -19.75% |
| 91 | `[H][C@@]12CCN(Cc3nccs3)C[C@@]1([H])O[C@@H](C)C2` | -58.58% |